In patent US20230235034A1:
No constants are given. Whether binding was seen depends on the method and setting. Some results given as binding are weak or reduced against the parent protein; the word gives no strength.

Legend:
[1] = molecular target: full length tau isoform T44 (UniProt P10636); assay: western blot
mouse T40 tau (mouse) = mouse T40 tau (mouse) (UniProt P10637); assay: western blot
[2] = molecular target: full length tau isoform T43 (UniProt P10636); assay: western blot
[3] = molecular target: pathological tau in Pick's disease (PiD) brain tissue (human) (UniProt P10636); assay: immunohistochemistry on human brain sections
[4] = molecular target: ΔK18 fragment of tau (Homo sapiens (Human)) (UniProt P10636); assay: western blot of tau fragments
ABP fragment of tau = ABP fragment of tau (UniProt P10636); assay: western blot of tau fragments
[5] = molecular target: ΔK18-A fragment of tau (Macaca mulatta (Rhesus macaque)) (UniProt P57786); assay: western blot of tau fragments

binding [1]: binds
binding (mouse T40 tau (mouse)): binds
binding [2]: binds
binding [3]: binds
binding [4]: binds
binding (ABP fragment of tau): binds
binding [5]: binds
B1: SKT82 (antibody, mouse IgG2a, V domains shown)
VH: EVQLQQSGAELVRSGASVKLSCTASGFNIKDYYMHWVKQRPEQGLEWIGWFDPENGDAEYAPKFQDKATMTADTSSNAAYLQLSSLTSEDTAVYYCNGYLYWGQGTLVTVSS
VL: DVLMTQTPLSLPVSLGDQASISCRSSQNIVHNNGNTYLEWYLQKPGQSPKLLIYKVSNRFSGVPDRFSGSGSGTDFTLKISRVEAEDLGIYYCFQGSHVPHTFGGGTRLEIK
